Laboratory results published in US20120034215A1 (Daiichi Sankyo, published 2012).
Results are given in words; binding and its absence hold for the method and conditions named. Some entries that bind do so weakly or less than the wild type.

Chains of the proteins cited; added tags and fusions are not shown. Lines headed by an entry give the natural chain unless they say otherwise; changes in a name come on top.
UniProt Q62190: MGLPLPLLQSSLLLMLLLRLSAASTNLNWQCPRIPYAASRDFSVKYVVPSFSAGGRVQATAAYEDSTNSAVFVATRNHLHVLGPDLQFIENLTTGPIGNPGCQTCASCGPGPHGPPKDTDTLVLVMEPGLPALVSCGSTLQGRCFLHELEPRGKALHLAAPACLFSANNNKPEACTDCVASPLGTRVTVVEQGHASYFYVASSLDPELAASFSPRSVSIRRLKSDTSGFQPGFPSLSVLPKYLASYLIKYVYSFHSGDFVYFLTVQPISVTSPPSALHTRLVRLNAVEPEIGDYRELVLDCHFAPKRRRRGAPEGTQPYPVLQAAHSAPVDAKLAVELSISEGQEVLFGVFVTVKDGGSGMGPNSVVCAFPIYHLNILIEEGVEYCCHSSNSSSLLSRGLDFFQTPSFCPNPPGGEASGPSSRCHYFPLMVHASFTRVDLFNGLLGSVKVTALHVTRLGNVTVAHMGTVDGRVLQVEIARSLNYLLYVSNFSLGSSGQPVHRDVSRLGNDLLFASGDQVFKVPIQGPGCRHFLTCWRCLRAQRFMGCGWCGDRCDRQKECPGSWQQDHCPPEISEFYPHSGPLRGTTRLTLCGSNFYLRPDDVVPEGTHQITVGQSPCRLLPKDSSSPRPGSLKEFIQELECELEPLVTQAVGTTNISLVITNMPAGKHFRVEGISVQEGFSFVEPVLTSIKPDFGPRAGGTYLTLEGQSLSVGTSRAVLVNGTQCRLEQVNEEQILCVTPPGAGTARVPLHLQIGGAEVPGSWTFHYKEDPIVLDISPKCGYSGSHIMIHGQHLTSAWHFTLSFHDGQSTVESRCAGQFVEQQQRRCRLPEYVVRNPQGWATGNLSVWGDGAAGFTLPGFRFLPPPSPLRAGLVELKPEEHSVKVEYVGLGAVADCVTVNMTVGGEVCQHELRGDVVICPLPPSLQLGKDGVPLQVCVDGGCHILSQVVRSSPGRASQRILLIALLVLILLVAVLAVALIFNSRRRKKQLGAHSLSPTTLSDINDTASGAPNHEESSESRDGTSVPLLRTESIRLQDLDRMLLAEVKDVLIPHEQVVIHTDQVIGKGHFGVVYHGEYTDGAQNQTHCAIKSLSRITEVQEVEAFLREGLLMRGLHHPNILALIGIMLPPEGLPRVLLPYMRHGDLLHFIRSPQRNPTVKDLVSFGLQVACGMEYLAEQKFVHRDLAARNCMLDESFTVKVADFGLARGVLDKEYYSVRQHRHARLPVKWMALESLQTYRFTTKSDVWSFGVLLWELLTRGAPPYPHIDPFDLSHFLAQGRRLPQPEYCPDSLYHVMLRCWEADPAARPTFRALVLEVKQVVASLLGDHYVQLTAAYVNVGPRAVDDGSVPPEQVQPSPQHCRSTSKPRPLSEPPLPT

Target: mouse MST1R with N-terminal Flag tag, expressed on HEK293T cells (mouse) (UniProt Q62190)
Test: flow cytometry on transfected HEK293T cells, 2 ug/ml IgG1

binding: binds
B1: MOR07919 (human IgG1) (antibody, V domains shown)
VH: QVQLVQSGAEVKKPGESLKISCKGSGYSFTNYWISWVRQMPGKGLEWMGFIYPDDSYTRYSPSFQGQVTISADKSISTAYLQWSSLKASDTAMYYCARFSYRHYLDMDDHWGQGTLVTVSS
VL: DIELTQPPSVSVAPGQTARISCSGDSLGSKYVHWYQQKPGQAPVLVIYRDNKRPSGIPERFSGSNSGNTATLTISGTQAEDEADYYCQSYDATEFTYVFGGGTKLTVLG
